# Some of the results follow.
# B1: his-Lectin-24A (Drosophila melanogaster) (protein)
# chain: MFRLSVLVLNLLLVSHEFSAGTAKIEIQPLPALCNGYCFPTLKPVMEYVAIHQDKWNTCTEILANEARKDQIQLNIQLDALKADVSNIKASQLSKDEKLDRMEREQFAMHESLETINRYLTVKLDRTKLQLEAIKNTMDYMKAQMDGYFSAINGVQCLQPGFEKIGDRYFYIEEDVELNWLDAQAKCRRMGGHLASIKTKQEFDAIVEKLDDSKSYFLGVNENTKTGDFVSAASGKSCLYHEWGPGEPHHNNDQERCVSILRKLMHVGNCTYEKRFICQYGI
# Legend:
# Test in all cases: glycan array binding signal (z-score within array); higher = stronger binding
# Conditions in all cases: glycan notation: IUPAC condensed, linker removed
# [1] = target: Fuc(a1-2)Gal(b1-4)[Fuc(a1-3)]GlcNAc(b1-2)Man(a1-3)[Fuc(a1-2)Gal(b1-4)[Fuc(a1-3)]GlcNAc(b1-2)Man(a1-6)]Man(b1-4)GlcNAc(b1-4)[Fuc(a1-6)]GlcNAc
# Method in brief: (§1)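 The Consortium for Functional Glycomics database supplied 3228 glycan arrays, of which those lacking an available protein sequence were dropped. The binding signal, a within-array Z-score, was averaged across arrays of the same protein sequence and across linkers. Negative scores can be read as non-binding.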
# [2] = target: Fuc(a1-2)Gal(b1-4)[Fuc(a1-3)]GlcNAc(b1-2)[Fuc(a1-2)Gal(b1-4)[Fuc(a1-3)]GlcNAc(b1-4)]Man(a1-3)[Fuc(a1-2)Gal(b1-4)[Fuc(a1-3)]GlcNAc(b1-2)Man(a1-6)]Man(b1-4)GlcNAc(b1-4)GlcNAc
# Method in brief: as §1
# [3] = target: Fuc(a1-2)Gal(b1-4)[Fuc(a1-3)]GlcNAc(b1-3)Gal(b1-4)[Fuc(a1-3)]GlcNAc
# Method in brief: as §1
# [4] = target: Fuc(a1-2)Gal(b1-4)[Fuc(a1-3)]GlcNAc(b1-3)Gal(b1-4)[Fuc(a1-3)]GlcNAc(b1-3)Gal(b1-4)[Fuc(a1-3)]GlcNAc
# Method in brief: as §1
# [5] = target: Fuc(a1-2)Gal(b1-4)[Fuc(a1-3)]GlcNAc(b1-3)GalNAc
# Method in brief: as §1
# [6] = target: Fuc(a1-2)Gal(b1-4)[Fuc(a1-3)]GlcNAc(b1-3)[Neu5Ac(a2-6)Gal(b1-4)GlcNAc(b1-6)]Gal(b1-4)Glc
# Method in brief: as §1
# [7] = target: Fuc(a1-2)Gal3S(b1-4)GlcNAc
# Method in brief: as §1
# [8] = target: Fuc(a1-2)Gal6S(b1-3)GlcNAc
# Method in brief: as §1
# [9] = target: Fuc(a1-2)Gal6S(b1-3)GlcNAc6S
# Method in brief: as §1
# Fuc(a1-2)Gal6S(b1-4)Glc = target: Fuc(a1-2)Gal6S(b1-4)Glc
# Method in brief: as §1
# [10] = target: Fuc(a1-2)Gal6S(b1-4)Glc6S
# Method in brief: as §1
# Fuc(a1-2)[Gal(a1-3)]Gal = target: Fuc(a1-2)[Gal(a1-3)]Gal
# Method in brief: as §1
# [11] = target: Fuc(a1-2)[Gal(a1-3)]Gal(b1-3)GalNAc
# Method in brief: as §1
# [12] = target: Fuc(a1-2)[Gal(a1-3)]Gal(b1-3)GalNAc(b1-3)Gal(a1-4)Gal(b1-4)Glc
# Method in brief: as §1
# [13] = target: Fuc(a1-2)[Gal(a1-3)]Gal(b1-3)GlcNAc
# Method in brief: as §1
# [14] = target: Fuc(a1-2)[Gal(a1-3)]Gal(b1-3)GlcNAc(b1-2)Man(a1-3)[Fuc(a1-2)[Gal(a1-3)]Gal(b1-3)GlcNAc(b1-2)Man(a1-6)]Man(b1-4)GlcNAc(b1-4)GlcNAc
# Method in brief: as §1
# [15] = target: Fuc(a1-2)[Gal(a1-3)]Gal(b1-3)GlcNAc(b1-2)Man(a1-3)[Fuc(a1-2)[Gal(a1-3)]Gal(b1-3)GlcNAc(b1-2)Man(a1-6)]Man(b1-4)GlcNAc(b1-4)[Fuc(a1-6)]GlcNAc
# Method in brief: as §1
# [16] = target: Fuc(a1-2)[Gal(a1-3)]Gal(b1-3)GlcNAc(b1-3)GalNAc
# Method in brief: as §1
# [17] = target: Fuc(a1-2)[Gal(a1-3)]Gal(b1-3)GlcNAc(b1-6)GalNAc
# Method in brief: as §1
# [18] = target: Fuc(a1-2)[Gal(a1-3)]Gal(b1-4)Glc
# Method in brief: as §1
# [19] = target: Fuc(a1-2)[Gal(a1-3)]Gal(b1-4)GlcNAc
# Method in brief: as §1
# [20] = target: Fuc(a1-2)[Gal(a1-3)]Gal(b1-4)GlcNAc(b1-2)Man
# Method in brief: as §1
# [21] = target: Fuc(a1-2)[Gal(a1-3)]Gal(b1-4)GlcNAc(b1-2)Man(a1-3)[Fuc(a1-2)[Gal(a1-3)]Gal(b1-4)GlcNAc(b1-2)Man(a1-6)]Man(b1-4)GlcNAc(b1-4)GlcNAc
# Method in brief: as §1
# [22] = target: Fuc(a1-2)[Gal(a1-3)]Gal(b1-4)GlcNAc(b1-2)Man(a1-3)[Fuc(a1-2)[Gal(a1-3)]Gal(b1-4)GlcNAc(b1-2)Man(a1-6)]Man(b1-4)GlcNAc(b1-4)[Fuc(a1-6)]GlcNAc
# Method in brief: as §1
# [23] = target: Fuc(a1-2)[Gal(a1-3)]Gal(b1-4)GlcNAc(b1-3)GalNAc
# Method in brief: as §1
# [24] = target: Fuc(a1-2)[Gal(a1-3)]Gal(b1-4)GlcNAc(b1-3)[Fuc(a1-2)[Gal(a1-3)]Gal(b1-4)GlcNAc(b1-6)]GalNAc
# Method in brief: as §1
# [25] = target: Fuc(a1-2)[Gal(a1-3)]Gal(b1-4)GlcNAc(b1-6)GalNAc
# Method in brief: as §1
# [26] = target: Fuc(a1-2)[Gal(a1-3)]Gal(b1-4)[Fuc(a1-3)]Glc
# Method in brief: as §1
# [27] = target: Fuc(a1-2)[Gal(a1-3)]Gal(b1-4)[Fuc(a1-3)]GlcNAc
# Method in brief: as §1
# [28] = target: Fuc(a1-2)[Gal(a1-3)]Gal(b1-4)[Fuc(a1-3)]GlcNAc(b1-3)GalNAc
# Method in brief: as §1
# [29] = target: Fuc(a1-2)[Gal(a1-4)]Gal(b1-4)GlcNAc
# Method in brief: as §1
# [30] = target: Fuc(a1-2)[GalNAc(a1-3)]Gal
# Method in brief: as §1
# [31] = target: Fuc(a1-2)[GalNAc(a1-3)]Gal(b1-3)GalNAc(a1-3)[Fuc(a1-2)]Gal(b1-4)GlcNAc
# Method in brief: as §1
# [32] = target: Fuc(a1-2)[GalNAc(a1-3)]Gal(b1-3)GalNAc(b1-3)Gal(a1-4)Gal(b1-4)Glc
# Method in brief: as §1
# [33] = target: Fuc(a1-2)[GalNAc(a1-3)]Gal(b1-3)GlcNAc
# Method in brief: as §1
# [34] = target: Fuc(a1-2)[GalNAc(a1-3)]Gal(b1-3)GlcNAc(b1-2)Man(a1-3)[Fuc(a1-2)[GalNAc(a1-3)]Gal(b1-3)GlcNAc(b1-2)Man(a1-6)]Man(b1-4)GlcNAc(b1-4)GlcNAc
# Method in brief: as §1
# [35] = target: Fuc(a1-2)[GalNAc(a1-3)]Gal(b1-3)GlcNAc(b1-2)Man(a1-3)[Fuc(a1-2)[GalNAc(a1-3)]Gal(b1-3)GlcNAc(b1-2)Man(a1-6)]Man(b1-4)GlcNAc(b1-4)[Fuc(a1-6)]GlcNAc
# Method in brief: as §1
# [36] = target: Fuc(a1-2)[GalNAc(a1-3)]Gal(b1-3)GlcNAc(b1-3)GalNAc
# Method in brief: as §1
binder,measurement,setting,value
B1,glycan array binding signal (z-score),[1],-0.533
same,glycan array binding signal (z-score),[2],-0.328
same,glycan array binding signal (z-score),[3],1.19
same,glycan array binding signal (z-score),[4],-0.768
same,glycan array binding signal (z-score),[5],0.482
same,glycan array binding signal (z-score),[6],0.151
same,glycan array binding signal (z-score),[7],-0.932
same,glycan array binding signal (z-score),[8],1.03
same,glycan array binding signal (z-score),[9],-0.015
same,glycan array binding signal (z-score),Fuc(a1-2)Gal6S(b1-4)Glc,-0.34
same,glycan array binding signal (z-score),[10],-0.878
same,glycan array binding signal (z-score),Fuc(a1-2)[Gal(a1-3)]Gal,-1.27
same,glycan array binding signal (z-score),[11],0
same,glycan array binding signal (z-score),[12],-0.993
same,glycan array binding signal (z-score),[13],-0.679
same,glycan array binding signal (z-score),[14],-0.788
same,glycan array binding signal (z-score),[15],0.379
same,glycan array binding signal (z-score),[16],-0.701
same,glycan array binding signal (z-score),[17],-0.692
same,glycan array binding signal (z-score),[18],-0.583
same,glycan array binding signal (z-score),[19],-0.452
same,glycan array binding signal (z-score),[20],0.08
same,glycan array binding signal (z-score),[21],2.02
same,glycan array binding signal (z-score),[22],-1.36
same,glycan array binding signal (z-score),[23],0.642
same,glycan array binding signal (z-score),[24],0.557
same,glycan array binding signal (z-score),[25],0.328
same,glycan array binding signal (z-score),[26],-1.49
same,glycan array binding signal (z-score),[27],-0.544
same,glycan array binding signal (z-score),[28],-0.502
same,glycan array binding signal (z-score),[29],0.495
same,glycan array binding signal (z-score),[30],0.077
same,glycan array binding signal (z-score),[31],-0.054
same,glycan array binding signal (z-score),[32],-0.805
same,glycan array binding signal (z-score),[33],1.9
same,glycan array binding signal (z-score),[34],-1.52
same,glycan array binding signal (z-score),[35],-0.522
same,glycan array binding signal (z-score),[36],-0.188

# Already shown: entries from further up.
binder,measurement,setting,value
B1,glycan array binding signal (z-score),[34],-1.52
same,glycan array binding signal (z-score),[35],-0.522

# From the supplement of paper PMC8728848
